{"source": "paper PMC3988174", "note": "Results are given in words; binding and its absence hold for the method and conditions named. Some results given as binding are weak or reduced against the parent protein; the word gives no strength."}
{"molecular_target": "atToc132 A- plus G-domains bait (Arabidopsis thaliana) (UniProt Q9SLF3)", "test": "two-hybrid; pairwise split-ubiquitin yeast two-hybrid of isolated NubG-preys with Toc159G, Toc132G or Toc132AG bait in NMY51; growth on SD-LWHA (3-AT) and quantitative β-Gal assay, activity relative to a reference bait set to 100%"}
{"binder": "Tryptophan synthase, beta subunit 1 (protein, UniProt P14671 1-470) MAASGTSATFRASVSSAPSSSSQLTHLKSPFKAVKYTPLPSSRSKSSSFSVSCTIAKDPPVLMAAGSDPALWQRPDSFGRFGKFGGKYVPETLMHALSELESAFYALATDDDFQRELAGILKDYVGRESPLYFAERLTEHYRRENGEGPLIYLKREDLNHTGAHKINNAVAQALLAKRLGKKRIIAETGAGQHGVATATVCARFGLECIIYMGAQDMERQALNVFRMRLLGAEVRGVHSGTATLKDATSEAIRDWVTNVETTHYILGSVAGPHPYPMMVRDFHAVIGKETRKQALEKWGGKPDVLVACVGGGSNAMGLFHEFVNDTEVRMIGVEAAGFGLDSGKHAATLTKGDVGVLHGAMSYLLQDDDGQIIEPHSISAGLDYPGVGPEHSFFKDMGRAEYYSITDEEALEAFKRVSRLEGIIPALETSHALAYLEKLCPTLSDGTRVVLNFSGRGDKDVQTVAKYLDV", "binding": "binds"}
{"binder": "Chloroplast chaperonin 10 (protein, UniProt O80504 1-139) MASTFVCSLPNPFFAFPVKATTPSTANHTLLGSRRGCLRIKAISTKWEPTKVVPQADRVLVRLEDLPIKSSGGVLLPKAAVKFERYLTGEIISVGSEVGQQVGPGKRVLFSDVSAYEVDLGTDARHCFCKESDLLALVE", "binding": "binds"}
{"binder": "Glutathione S-transferase PHI 2 (protein, UniProt P46422 1-212) MAGIKVFGHPASIATRRVLIALHEKNLDFELVHVELKDGEHKKEPFLSRNPFGQVPAFEDGDLKLFESRAITQYIAHRYENQGTNLLQTDSKNISQYAIMAIGMQVEDHQFDPVASKLAFEQIFKSIYGLTTDEAVVAEEEAKLAKVLDVYEARLKEFKYLAGETFTLTDLHHIPAIQYLLGTPTKKLFTERPRVNEWVAEITKRPASEKVQ", "binding": "binds"}
{"binder": "Ferretin 1 (protein, UniProt Q39101 1-255) MASNALSSFTAANPALSPKPLLPHGSASPSVSLGFSRKVGGGRAVVVAAATVDTNNMPMTGVVFQPFEEVKKADLAIPITSHASLARQRFADASEAVINEQINVEYNVSYVYHSMYAYFDRDNVAMKGLAKFFKESSEEERGHAEKFMEYQNQRGGRVKLHPIVSPISEFEHAEKGDALYAMELALSLEKLTNEKLLNVHKVASENNDPQLADFVESEFLGEQIEAIKKISDYITQLRMIGKGHGVWHFDQMLLN", "binding": "binds"}
{"binder": "Outer Plastid Envelope Protein 16-1 (protein, UniProt Q9ZV24 1-148) MPSSTFSGTVSTPKLSVAVDMGNPFLNLTVDAFLKIGAVGVTKSLAEDTYKAIDKGSLSKSTLEHALKKLCKEGVYWGAAGGVYIGTEYGIERIRGSRDWKNAMLAGAATGAVLSAVGKKGKDTIVIDAILGGALATASQFVNNHYFY", "binding": "binds"}
{"binder": "Protein LURP-one-related 15 Protein (protein, UniProt Q9LZX1 1-217) MEQPYVYAYPQGSGPSGAPTPQAGGVVVDPKYCAPYPIDMAIVRKMMSLTDGNFVITDVNGNLLFKVKEPVFGLHDKRVLLDGSGTPVVTLREKMVSMHDRWQVFRGGSTDQRDLLYTVKRSSMLQLKTKLDVFLGHNKDEKRCDFRVKGSWLERSCVVYAGESDAIVAQMHRKHTVQSVFLGKDNFSVTVYPNVDYAFIASLVVILDDVNREDRAA", "binding": "binds"}
{"binder": "Translationally controlled tumor protein (protein, UniProt P31265 1-168) MLVYQDLLTGDELLSDSFPYKEIENGILWEVEGKWVTVGAVDVNIGANPSAEEGGEDEGVDDSTQKVVDIVDTFRLQEQPTYDKKGFIAYIKKYIKLLTPKLSEEDQAVFKKGIEGATKFLLPRLSDFQFFVGEGMHDDSTLVFAYYKEGSTNPTFLYFAHGLKEVKC", "binding": "binds"}
{"binder": "Thioredoxin F-type 1 (protein, UniProt Q9XFH8 1-178) MPLSLRLSPSPTALSPTTGGFGPSRKQCRIPYSGVPTTKIGFCSLDSRKRGDSSVVRCSLETVNVSVGQVTEVDKDTFWPIVKAAGEKLVVLDMYTQWCGPCKVIAPKYKALSEKYDDVVFLKLDCNPDNRPLAKELGIRVVPTFKILKDNKVVKEVTGAKYDDLVAAIETARSAASG", "binding": "binds"}
{"binder": "Fe superoxide dismutase 1 (protein, UniProt P21276 1-212) MAASSAVTANYVLKPPPFALDALEPHMSKQTLEFHWGKHHRAYVDNLKKQVLGTELEGKPLEHIIHSTYNNGDLLPAFNNAAQAWNHEFFWESMKPGGGGKPSGELLALLERDFTSYEKFYEEFNAAAATQFGAGWAWLAYSNEKLKVVKTPNAVNPLVLGSFPLLTIDVWEHAYYLDFQNRRPDYIKTFMTNLVSWEAVSARLEAAKAASA", "binding": "binds"}
{"molecular_target": "atToc132 A- plus G-domains bait (Arabidopsis thaliana) (UniProt Q9SLF3)", "test": "two-hybrid; split-ubiquitin membrane-based yeast two-hybrid library screen in S. cerevisiae NMY51; bait fused to Cub-LexA-VP16 (pBT3-STE), Arabidopsis seedling cDNA library preys fused to NubG; selection on SD-LWHA with 3-AT; hits re-streaked, retransformed with the same bait, X-Gal filter assay"}
{"binder": "Plastid transcriptionally active 4 (protein, UniProt O80796 1-330) MALKASPVTGLFPPLRPTASSSPSTSSNRPCSLRILPLRTSFFGNSSGALRVNVLRLACDNRLRCNGHGATMNLFERFSRVVKSYANALISSFEDPEKILEQTVIEMNSDLTKMRQATAQVLASQKQLQNKYKAAQQSSDDWYKRAQLALAKGDEDLAREALKRRKSFADNATALKTQLDQQKGVVDNLVSNTRLLESKIQEAKAKKDTLLARARTAKTATKVQEMIGTVNTSGALSAFEKMEEKVMAMESEADALTQIGTDELEGKFQMLETSSVDDDLADLKKELSGSSKKGELPPGRSTVAASTRYPFKDSEIENELNELRRKANDF", "binding": "binds"}
{"binder": "AIG2-like avirulence induced gene family protein (protein, UniProt Q9MBH2 1-169) MTSSDKSLSHDVFVYGSFQEPSVVNLILECSPVMVPAQLHGYHVYRLKGRLHACISPSENGLINGKILTGLTDSQLENLDMIEGSEYVRKTVEVVLTDTSEKKQVETYVWANKDDPNLYGEWDFEEWRRLHMDKFIEASTKFIEWKKNPDGRSREEFEKFVFDDPPTAA", "binding": "binds"}
{"binder": "Putative 3-dehydroquinate synthase (protein, UniProt Q8VYV7 1-442) MAANTISLSNVAASKNLNSFQSRAFIAPPTIFFPVASAKSKPGELSLSSTTLSRSRVRAGASQLMNEPLNDQRSISSPTVVEVDLGDRSYPIYIGAGLLDHSELLQRHVHGKRVLVVTNDRVAPLYLDKTIDALTRGNPNVTVESVILPDGEKYKDMDTLMKVFDKAIESRLDRRCTFVALGGGVIGDMCGYAAASYLRGVNFIQIPTTVMAQVDSSVGGKTGINHRLGKNLIGAFYQPQCVLVDTDTLNTLPDREMASGLAEVIKYGLIRDAEFFEWQEKNIEALLARDPAALAFAIKRSCENKADVVSQDEKESGLRATLNLGHTFGHAIETGFGYGEWLHGEAVAAGTVMAVDMSYRLGWIDESIVKRVNKILVRAKLPTTPPESMTVSMFKSIMAVDKKVADGLLRLILLKGPLGNCVFTGDYDREALDATLRAFSKS", "binding": "binds"}
{"binder": "Oxygen-evolving enhancer protein 3-2 (protein, UniProt Q41932 1-230) MAQAVTSMAGLRGASQAVLEGSLQINGSNRLNISRVSVGSQRTGLVIRAQQNVSVPESSRRSVIGLVAAGLAGGSFVKAVFAEAIPIKVGGPPLPSGGLPGTDNSDQARDFSLALKDRFYIQPLSPTEAAARAKDSAKEIINVKSFIDKKAWPYVQNDLRLRASYLRYDLNTVISAKPKEEKQSLKDLTAKLFQTIDNLDYAARSKSSPDAEKYYSETVSSLNNVLAKLG", "binding": "binds"}
{"binder": "NADH dehydrogenase (ubiquinone) 1 alpha−subcomplex 5 (protein, UniProt Q9FLX7 1-169) MFLRAIGRPLLAKVKQTTGIVGLDVVPNARAVLIDLYSKTLKEIQAVPEDEGYRKAVESFTRQRLNVCKEEEDWEMIEKRLGCGQVEELIEEARDELTLIGKMIEWDPWGVPDDYECEVIENDAPIPKHVPQHRPGPLPEQFYKTLEGLIAESKTEIPAATPSDPQLKE", "binding": "binds"}
{"binder": "GLNB1-like protein (protein, UniProt Q9ZST4 1-196) MAASMTKPISITSLGFYSDRKNIAFSDCISICSGFRHSRPSCLDLVTKSPSNNSRVLPVVSAQISSDYIPDSKFYKVEAIVRPWRIQQVSSALLKIGIRGVTVSDVRGFGAQGGSTERHGGSEFSEDKFVAKVKMEIVVKKDQVESVINTIIEGARTGEIGDGKIFVLPVSDVIRVRTGERGEKAEKMTGDMLSPS", "binding": "binds"}
{"binder": "Ferredoxin-thioredoxin reductase subunit A (protein, UniProt Q9SJ89 1-146) MNLQAVSCSFGFLSSPLGVTPRTSFRRFVIRAKTEPSEKSVEIMRKFSEQYARRSGTYFCVDKGVTSVVIKGLAEHKDSYGAPLCPCRHYDDKAAEVGQGFWNCPCVPMRERKECHCMLFLTPDNDFAGKDQTITSDEIKETTANM", "binding": "binds"}
{"binder": "CCR-like protein (protein, UniProt Q96500 1-141) MQGALFIKPTILLPLPSSVSSPKLTFLLPHATKASRLSSLRSNNSSSSSSLTSDPNTVDYNSSILSVFPAEACEVISGYACSADIYPEVKLDTKPVSRPVASEPVDREYEEYNSPKTVFREEACDDLGGEFCEPDFQKDAN", "binding": "binds"}
{"binder": "Dehydrin family protein (protein, UniProt Q9SLJ2 1-98) MAGLINKIGDALHIGGGNKEGEHKKEEEHKKHVDEHKSGEHKEGIVDKIKDKIHGGEGKSHDGEGKSHDGEKKKKKDKKEKKHHDDGHHSSSSDSDSD", "binding": "binds"}
{"binder": "Photosystem II reaction center PSB28 protein (protein, UniProt Q8W0Y8 1-183) MACVRSIGSLTSVNHSQRNVPRSGIVLSSCSVLPIKSSSFTGSPVSLPRAQPSSRTALRPMKPVSITMMVKPALQFIQGTDEMTIPDVKLTRSRDGSNGMALFSFDQPSVFDSSGEVGEITGLYMIDEEGVIQSTDVNARFVNGKPEGIVAKHIMRSPKEWDRFMRFMERYSDQNGLQFVKKQ", "binding": "binds"}
{"binder": "Photosystem II subunit T (protein, UniProt Q39195 1-103) MASMTMTATFFPAVAKVPSATGGRRLSVVRASTSDNTPSLEVKEQSSTTMRRDLMFTAAAAAVCSLAKVAMAEEEEPKRGTEAAKKKYAQVCVTMPTAKICRY", "binding": "binds"}
{"binder": "5′-Adenylylsulfate reductase 2 (protein, UniProt P92981 1-454) MALAVTSSSTAISGSSFSRSGASSESKALQICSIRLSDRTHLSQRRYSMKPLNAESHSRSESWVTRASTLIAPEVEEKGGEVEDFEQLAKKLEDASPLEIMDKALERFGDQIAIAFSGAEDVALIEYARLTGKPFRVFSLDTGRLNPETYRLFDAVEKQYGIRIEYMFPDAVEVQALVRNKGLFSFYEDGHQECCRVRKVRPLRRALKGLKAWITGQRKDQSPGTRSEIPIVQVDPVFEGLDGGVGSLVKWNPLANVEGADVWNFLRTMDVPVNALHAQGYVSIGCEPCTRPVLPGQHEREGRWWWEDAKAKECGLHKGNIKEEDGAADSKPAAVQEIFESNNVVALSKGGVENLLKLENRKEAWLVVLYAPWCPFCQAMEASYIELAEKLAGKGVKVAKFRADGEQKEFAKQELQLGSFPTILLFPKRAPRAIKYPSEHRDVDSLMSFVNLLR", "binding": "binds"}
